Publication PMC12320973
These are yes or no findings as the source states them, for the method shown. Binding seen in cells or lysates may run through a third protein. Binding can be weak; no strength is given.

Sequences of proteins named here, by UniProt entry; tags and fusion partners are left off. A change or cut given only in a name is not applied to a line headed by its entry.
UniProt Q96KP1: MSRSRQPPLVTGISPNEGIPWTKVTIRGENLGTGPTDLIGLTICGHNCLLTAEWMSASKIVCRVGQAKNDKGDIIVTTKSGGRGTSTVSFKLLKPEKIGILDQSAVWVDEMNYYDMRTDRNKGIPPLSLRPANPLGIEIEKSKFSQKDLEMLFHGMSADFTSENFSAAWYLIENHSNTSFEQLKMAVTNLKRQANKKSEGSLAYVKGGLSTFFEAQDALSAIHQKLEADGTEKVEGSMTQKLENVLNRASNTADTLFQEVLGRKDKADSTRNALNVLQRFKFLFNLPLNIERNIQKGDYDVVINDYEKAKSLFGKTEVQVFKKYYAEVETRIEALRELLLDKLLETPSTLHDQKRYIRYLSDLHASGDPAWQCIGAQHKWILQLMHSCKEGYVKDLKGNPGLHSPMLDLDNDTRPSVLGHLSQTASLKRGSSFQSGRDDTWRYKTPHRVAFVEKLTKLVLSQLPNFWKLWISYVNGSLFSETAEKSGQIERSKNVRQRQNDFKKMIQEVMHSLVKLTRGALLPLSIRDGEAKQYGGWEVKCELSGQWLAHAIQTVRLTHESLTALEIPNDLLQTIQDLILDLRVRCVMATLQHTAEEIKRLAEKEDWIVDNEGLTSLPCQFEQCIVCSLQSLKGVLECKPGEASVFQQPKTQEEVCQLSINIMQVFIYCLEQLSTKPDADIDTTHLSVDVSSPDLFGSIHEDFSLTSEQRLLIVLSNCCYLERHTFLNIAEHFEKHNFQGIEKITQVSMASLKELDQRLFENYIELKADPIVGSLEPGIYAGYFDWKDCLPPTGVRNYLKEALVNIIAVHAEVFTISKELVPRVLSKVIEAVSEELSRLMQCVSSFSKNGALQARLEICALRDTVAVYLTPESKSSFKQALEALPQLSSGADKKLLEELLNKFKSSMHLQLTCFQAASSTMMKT

B1: RALB (endogenous, MCF7 and MiaPaCa2 cells) (protein, UniProt P11234 1-206)
chain: MAANKSKGQSSLALHKVIMVGSGGVGKSALTLQFMYDEFVEDYEPTKADSYRKKVVLDGEEVQIDILDTAGQEDYAAIRDNYFRSGEGFLLVFSITEHESFTATAEFREQILRVKAEEDKIPLLVVGNKSDLEERRQVPVEEARSKAEEWGVQYVETSAKTRANVDKVFFDLMREIRTKKMSENKDKNGKKSSKNKKSFKERCCLL
B2: WT-RALA (protein, UniProt P11233 1-206)
chain: MAANKPKGQNSLALHKVIMVGSGGVGKSALTLQFMYDEFVEDYEPTKADSYRKKVVLDGEEVQIDILDTAGQEDYAAIRDNYFRSGEGFLCVFSITEMESFAATADFREQILRVKEDENVPFLLVGNKSDLEDKRQVSVEEAKNRAEQWNVNYVETSAKTRANVDKVFFDLMREIRARKMEDSKEKNGKKKRKSLAKRIRERCCIL
B3: RALA (endogenous, MCF7 and MiaPaCa2 cells) (protein, UniProt P11233 1-206)
chain: MAANKPKGQNSLALHKVIMVGSGGVGKSALTLQFMYDEFVEDYEPTKADSYRKKVVLDGEEVQIDILDTAGQEDYAAIRDNYFRSGEGFLCVFSITEMESFAATADFREQILRVKEDENVPFLLVGNKSDLEDKRQVSVEEAKNRAEQWNVNYVETSAKTRANVDKVFFDLMREIRARKMEDSKEKNGKKKRKSLAKRIRERCCIL
B4: S194D-RALA (protein, UniProt P11233 1-206)
chain: MAANKPKGQNSLALHKVIMVGSGGVGKSALTLQFMYDEFVEDYEPTKADSYRKKVVLDGEEVQIDILDTAGQEDYAAIRDNYFRSGEGFLCVFSITEMESFAATADFREQILRVKEDENVPFLLVGNKSDLEDKRQVSVEEAKNRAEQWNVNYVETSAKTRANVDKVFFDLMREIRARKMEDSKEKNGKKKRKDLAKRIRERCCIL
B5: S194A-RALA (protein, UniProt P11233 1-206)
chain: MAANKPKGQNSLALHKVIMVGSGGVGKSALTLQFMYDEFVEDYEPTKADSYRKKVVLDGEEVQIDILDTAGQEDYAAIRDNYFRSGEGFLCVFSITEMESFAATADFREQILRVKEDENVPFLLVGNKSDLEDKRQVSVEEAKNRAEQWNVNYVETSAKTRANVDKVFFDLMREIRARKMEDSKEKNGKKKRKALAKRIRERCCIL

Biological target: GST-Sec5 Ral binding domain (RBD) (UniProt Q96KP1)
Assay: pull-down; GST-Sec5 RBD as bait on glutathione sepharose beads; 400 ul lysate of control, Cas9 control, RALA KO and RALA (WT/S194A/S194D) reconstituted MCF7 and MiaPaCa2 cells, with or without DMSO, DEX, 0.02 uM free MLN8237 or VMLN; western blot for RALA and RALB; only the target purified

binding, binds:
B1
B2
B3
B4
B5
